According to patent US6274334A, “Monoclonal antibody, cell line and immunoassay for ractopamine” (The United States of America as represented by the …, priority 2000, dated 2001):

Test system: 5G10 monoclonal antibody
Assay: Intra- and inter-assay variation for determination of racemic ractopamine spiked into diluted (1:10) urine
Set-up: species or system mouse
[1] = inter-assay (n = 5), spike 1 ng/ml
[2] = inter-assay (n = 5), spike 5 ng/ml
[3] = inter-assay (n = 5), spike 10 ng/ml
[4] = inter-assay (n = 5), spike 20 ng/ml
[5] = intra-assay (n = 12), spike 1 ng/ml
[6] = intra-assay (n = 12), spike 5 ng/ml
[7] = intra-assay (n = 12), spike 10 ng/ml
[8] = intra-assay (n = 12), spike 20 ng/ml

Structure (SMILES): CC(CCc1ccc(O)cc1)NCC(O)c1ccc(O)cc1 (racemic) [Ractopamine (racemic), (1R*, 3R*), (1R*, 3S*)-4-hydroxy-β-[[[3-(4-hydroxyphenyl)-1-methylpropyl]amino]methyl]-benzenemethanol hydrochloride]
- Found [1]: 1.1 ± 0.4 ng/mL
- Percentage recovery [1]: 110%
- Found [2]: 3.9 ± 0.6 ng/mL
- Percentage recovery [2]: 78%
- Found [3]: 9.5 ± 1.7 ng/mL
- Percentage recovery [3]: 95%
- Found [4]: 22.4 ± 5.6 ng/mL
- Percentage recovery [4]: 112%
- Found [5]: 1.2 ± 0.06 ng/mL
- Percentage recovery [5]: 120%
- Found [6]: 4.2 ± 0.2 ng/mL
- Percentage recovery [6]: 84%
- Found [7]: 10.4 ± 0.6 ng/mL
- Percentage recovery [7]: 104%
- Found [8]: 20.6 ± 0.7 ng/mL
- Percentage recovery [8]: 103%

Counter-ions that a name gives are not always drawn.
